The source of these data is PubChem BioAssay AID328 (DTP/NCI, 2004).

This assay relates to BDF1 mice, P388 leukemia ip, median survival T/C. Description: NCI In Vivo Anticancer Drug Screen. Data for tumor model P388 Leukemia (intraperitoneal) in B6D2F1 (BDF1) mice. Particulars: T/C endpoint: median survival time, higher T/C = longer survival. An outline of the steps: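 T/C = treated-group survival ÷ vehicle-control survival; tumour transplanted into mice before dosing.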

Where [1] appears, read: dose: 200.0 mg/kg/injection, schedule: Q01DX009 (ip), vehicle: water.
[2] abbreviates: dose: 400.0 mg/kg/injection, schedule: Q01DX009 (ip), vehicle: water.
[3] abbreviates: dose: 50.0 mg/kg/injection, schedule: Q01DX009 (ip), vehicle: saline.
The mark [4] stands for this setting: dose: 100.0 mg/kg/injection, schedule: Q01DX009 (ip), vehicle: saline with Tween-80.

The list is a part of this screen's results and no random one: it gathers tests that were run many times, whatever their T/C, doses with no T/C, and many T/C values between a quarter and a half above the control. Further doses and runs are listed elsewhere. T/C: endpoint of the treated group in % of that of the vehicle group. Some entries give survivors of the animals treated and no T/C: the source files T/C as zero there, which appears to mark a toxic dose or a test without result, not a measured value. Some doses without a T/C left all or most animals alive at the check, yet need not have been tolerated: the source hardly ever lists a survival T/C far under the control, and the zero likely stands for such cases as well. Counts of survivors are from the toxicity check (mostly the fifth day) where no day follows; animals may have died later. Schedule codes are those of the source, taken here to give the interval after Q, in days (D) or hours (H), and the number of doses after X. Where survival is the endpoint, this PubChem deposit counts one and a half times the control or more as active, and values a quarter to a half above the control carry no call in these data; other NCI protocols may use other cut-offs.

As for `CC1=CC(c2ccc3c(c2)OCO3)c2c(c3ccccc3oc2=O)O1` (stereo not drawn), the survivor count is, setting by setting: (dose: 25.0 mg/kg/injection, schedule: Q01DX009 (ip), vehicle: water) 6 of 6; (dose: 50.0 mg/kg/injection, schedule: Q01DX009 (ip), vehicle: water) 5 of 6; (dose: 100.0 mg/kg/injection, schedule: Q01DX009 (ip), vehicle: water) 3 of 6; under setting [1], 3 of 6; under setting [2], 2 of 6.
As to `NCCNCC[OH2+].NCCNCC[OH2+].O=[N+]([O-])[O-].[Ni+2]`, the survivor count under setting [3] is on record as 4 of 6; the survivor count (dose: 100.0 mg/kg/injection, schedule: Q01DX009 (ip), vehicle: saline) is 1 of 6; the survivor count (dose: 200.0 mg/kg/injection, schedule: Q01DX009 (ip), vehicle: saline) is on record as 0 of 6.
Take `S=C(Nc1ccccn1)Nc1ccccn1`: where the note is “dose: 200.0 mg/kg/injection, schedule: Q01DX009 (ip), vehicle: Klucel (hydroxypropylcellulose) (HPC)”, the T/C was 126 % of control.
Take `CCCCOCNc1ncccn1`: under “dose: 200.0 mg/kg/injection, schedule: Q01DX009 (ip), vehicle: saline with Tween-80”, the T/C was 130 % of control.
In the case of `CCOC(=O)c1ccc(NC(=O)Nc2nc(C)cs2)cc1`, under “dose: 50.0 mg/kg/injection, schedule: Q01DX009 (ip), vehicle: other”, the T/C was 127 % of control. The survivor count is on record as 6 of 6 (dose: 200.0 mg/kg/injection, schedule: Q01DX009 (ip), vehicle: other) and 2 of 6 (dose: 400.0 mg/kg/injection, schedule: Q01DX009 (ip), vehicle: other).
Take `c1cc2cnc3cccc4cnc(c1)c2c43`: the survivor count (dose: 200.0 mg/kg/injection, schedule: Q01DX001 (ip), vehicle: saline sonified) is 5 of 6.
`ClCCOC(OCCCl)OCCCl`: the survivor count is listed as 5 of 6 under setting [4]; 3 of 6 (dose: 200.0 mg/kg/injection, schedule: Q04DX003 (ip), vehicle: saline with Tween-80); 0 of 6 (dose: 400.0 mg/kg/injection, schedule: Q04DX003 (ip), vehicle: saline with Tween-80).
In the case of `CCOC(=O)N/N=C\c1cc(OC)c(OC)c(OC)c1`, the survivor count was 6 of 6 (dose: 25.0 mg/kg/injection, schedule: Q01DX009 (ip), vehicle: saline with Tween-80) and 6 of 6 under setting [4].
On to `COC(=O)CC1CCN(C(=O)OCc2ccccc2)C(Cc2c[nH]c3ccccc23)C1=O` (stereo not drawn), for which the T/C (dose: 6.0 mg/kg/injection, schedule: Q01DX009 (ip), vehicle: saline) is 126 % of control.
Regarding `c1ccc(-c2nn(-c3ccccc3)[n+](-c3cccc4ccccc34)n2)cc1`, for the setting “dose: 8.0 mg/kg/injection, schedule: Q01DX009 (ip), vehicle: saline with Tween-80”, the survivor count was 0 of 6.
Turning to `CC(=O)OCCC/C(=C/c1cc2ccccc2c2ccccc12)[N+](=O)[O-]`, the survivor count (dose: 400.0 mg/kg/injection, schedule: Q01DX009 (ip), vehicle: Klucel (hydroxypropylcellulose) (HPC)) was 2 of 6.
With `CCN(CC)C(N)=Nc1ccc(NC(=O)c2ccc(C(=O)Nc3ccc(N=C(N)N(CC)CC)cc3)cc2)cc1`, the T/C (dose: 1.56 mg/kg/injection, schedule: Q01DX009 (ip), vehicle: saline) was 125 % of control. In addition, the survivor count runs as follows: (dose: 25.0 mg/kg/injection, schedule: Q01DX009 (ip), vehicle: saline) 1 of 3; under setting [3], 0 of 3.
In the case of `C=C1C(=O)OCC2C(C(=O)O)=CC3C(C)C(C)=CC123` (stereo not drawn), the T/C was 128 % of control (dose: 5.0 mg/kg/injection, schedule: Q01DX009 (ip), vehicle: other); 144 % of control (dose: 10.0 mg/kg/injection, schedule: Q01DX009 (ip), vehicle: other); 144 % of control (dose: 20.0 mg/kg/injection, schedule: Q01DX009 (ip), vehicle: other); 127 % of control (dose: 40.0 mg/kg/injection, schedule: Q01DX009 (ip), vehicle: Klucel (hydroxypropylcellulose) (HPC)); 133 % of control (dose: 80.0 mg/kg/injection, schedule: Q04DX003 (ip), vehicle: other). Moreover, the survivor count was 4 of 6 (dose: 40.0 mg/kg/injection, schedule: Q01DX009 (ip), vehicle: other) and 3 of 3 (dose: 80.0 mg/kg/injection, schedule: Q01DX009 (ip), vehicle: Klucel (hydroxypropylcellulose) (HPC)).
Regarding `Nc1nc(Cc2ccccc2)c(CCCNc2ccccc2)c(=O)[nH]1`, the survivor count (dose: 12.5 mg/kg/injection, schedule: Q01DX009 (ip), vehicle: saline with Tween-80) is reported as 6 of 6.
With `CC1OCC(Br)([N+](=O)[O-])CO1` (stereo not drawn), the survivor count is, setting by setting: (dose: 50.0 mg/kg/injection, schedule: Q04DX003 (ip), vehicle: saline) 3 of 6; (dose: 100.0 mg/kg/injection, schedule: Q04DX003 (ip), vehicle: saline) 0 of 6.
For `COc1ccc(/C=C/[N+](=O)[O-])cc1O`, the survivor count runs as follows: (dose: 150.0 mg/kg/injection, schedule: Q04DX003 (ip), vehicle: saline) 4 of 6; (dose: 200.0 mg/kg/injection, schedule: Q04DX003 (ip), vehicle: saline) 4 of 6; (dose: 400.0 mg/kg/injection, schedule: Q04DX003 (ip), vehicle: saline) 0 of 6.
For the molecule `COc1cc(C(=O)CCC(=O)O)cc(OC)c1OC`, for the setting “dose: 100.0 mg/kg/injection, schedule: Q04DX003 (ip), vehicle: Klucel (hydroxypropylcellulose) (HPC)”, the survivor count is given as 6 of 6.
Turning to `CCC1/C=C/C=C/CC(C)C(O)C(C)(O)C(=O)C(C)C(O)C(C)C(=O)C(C)C(O)C(C)/C=C/C(=O)OC2C(C)C(CC1)OC1(OC(CC(C)O)C(C)CC1=O)C2C` (stereo not drawn) (tested in a mixture with another compound), the survivor count is reported as 1 of 6 (dose: 1.2 mg/kg/injection, schedule: Q01DX010 (ip), vehicle: saline); 0 of 6 (dose: 2.4 mg/kg/injection, schedule: Q01DX010 (ip), vehicle: saline); 1 of 6 (dose: 2.5 mg/kg/injection, schedule: Q01DX010 (ip), vehicle: carboxymethylcellulose (CMC)); 0 of 6 (dose: 4.8 mg/kg/injection, schedule: Q01DX010 (ip), vehicle: saline); 2 of 6 (dose: 5.0 mg/kg/injection, schedule: Q01DX010 (ip), vehicle: carboxymethylcellulose (CMC)); 3 of 6 (dose: 10.0 mg/kg/injection, schedule: Q01DX009 (ip), vehicle: saline). For the same molecule, the survivor count (dose: 10.0 mg/kg/injection, schedule: Q01DX010 (ip), vehicle: carboxymethylcellulose (CMC)) was 1 of 6 and the survivor count (dose: 20.0 mg/kg/injection, schedule: Q01DX010 (ip), vehicle: carboxymethylcellulose (CMC)) is given as 0 of 6. Moreover, where the note is “dose: 75.0 micrograms/kg/injection, schedule: Q01DX010 (ip), vehicle: saline”, the T/C was 125 % of control.
Regarding `CCC(CC)OCCN1CCN(CCCN2c3ccccc3Sc3ccc(C(F)(F)F)cc32)CC1`, under “dose: 20.0 mg/kg/injection, schedule: Q04DX003 (ip), vehicle: saline with Tween-80”, the T/C is 126 % of control.
Turning to `CC1(C)C(N2CCOCC2)C(c2ccccc2)S1(=O)=O` (stereo not drawn), under “dose: 200.0 mg/kg/injection, schedule: Q01DX001 (ip), vehicle: saline with Tween-80”, the survivor count is 5 of 6.
Turning to `CC(=O)C1C(=O)OC2(C)C(=O)C3=COC(/C=C\C(C)=C/C(C)C)=CC3=CC12` (stereo not drawn), where the note is “dose: 300.0 mg/kg/injection, schedule: Q01DX009 (ip), vehicle: saline with Tween-80”, the T/C is 127 % of control.
In the case of `COc1cc2cc(c1Cl)N(C)C(=O)C[C@H](OC(=O)CBr)[C@]1(C)O[C@@H]1[C@H](C)[C@@H]1C[C@@](O)(NC(=O)O1)[C@H](OC)C=C/C=C(\C)C2`, the T/C is 129 % of control (dose: 0.9 micrograms/kg/injection, schedule: Q01DX009 (ip), vehicle: saline + alcohol); 131 % of control (dose: 1.8 micrograms/kg/injection, schedule: Q01DX009 (ip), vehicle: saline + alcohol); 130 % of control (dose: 3.1 micrograms/kg/injection, schedule: Q01DX009 (ip), vehicle: saline + alcohol); 146 % of control (dose: 6.2 micrograms/kg/injection, schedule: Q01DX009 (ip), vehicle: saline + alcohol). Besides, under “dose: 200.0 micrograms/kg/injection, schedule: Q01DX009 (ip), vehicle: saline + alcohol”, the survivor count is on record as 4 of 4.
As to `Cn1ccc(=O)c2cc([N+](=O)[O-])ccc21`, the survivor count runs as follows: under setting [1], 6 of 6; under setting [2], 2 of 6.
